Test results from paper PMC7819943, “Rice protein-binding microarrays: a tool to detect cis-acting elements near promoter regions in rice”.
The other results are listed elsewhere or left out.

Target: T1, OsSMF1 (Oryza sativa, UniProt Q6ZLB0 1-436)
T1 sequence: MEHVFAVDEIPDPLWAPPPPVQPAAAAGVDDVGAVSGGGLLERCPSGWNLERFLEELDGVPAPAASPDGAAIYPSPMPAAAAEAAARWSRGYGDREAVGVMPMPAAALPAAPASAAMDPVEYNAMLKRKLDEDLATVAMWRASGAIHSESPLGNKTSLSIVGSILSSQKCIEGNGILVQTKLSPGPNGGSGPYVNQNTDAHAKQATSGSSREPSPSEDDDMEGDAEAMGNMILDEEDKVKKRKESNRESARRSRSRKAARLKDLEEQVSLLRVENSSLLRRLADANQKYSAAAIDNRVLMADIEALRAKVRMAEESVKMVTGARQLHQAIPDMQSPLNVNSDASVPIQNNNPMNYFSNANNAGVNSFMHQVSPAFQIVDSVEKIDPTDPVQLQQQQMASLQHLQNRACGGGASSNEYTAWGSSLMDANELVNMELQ
Assay: protein-binding microarray (RPBM); PBS, 2% BSA, 51.3 ng/ul salmon testes DNA, 50 uM zinc acetate, 200 nM TF, 25 C, 1 h; high values mean tight binding
Details: protein: recombinant; tags: N-terminal polyhistidine and DsRed monomer fusion (pET32a); chain copies: 2; label: CyDye5-dUTP incorporated in the synthesized complementary strand; 3' TTTTT single-stranded linker to array surface; dsDNA, one strand shown
Method in brief: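 The binding signal for each feature is its fluorescence intensity in arbitrary units. An Axon 4000B scanner was used to read a custom Agilent array that had been made double-stranded with Cy5-dUTP primer extension, blocked with 2% BSA, incubated at 25 °C for 1 h with 200 nM protein in PBS, 2% BSA, salmon testes DNA and 50 µM zinc acetate, and washed. The protein was an N-terminal polyhistidine–DsRed transcription factor fusion from E. coli BL21-CodonPlus, purified on Ni–NTA.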

Sequence | binding signal
TTTCTTTCTAATTTAGTGCCACATAAGCGCTACGTCAACCCGGAGTCACCTAGTGCAG | 6370 fluorescence intensity (a.u.)
AGACCTTGTGTATACTTGAAGTCGTCTAATACGTGTTGATCGGAGTCACCTAGTGCAG | 3860 fluorescence intensity (a.u.)
CCAAGTGATATCTGTGTGTGTGTGTGTATATATATATCCTCGGAGTCACCTAGTGCAG | 3500 fluorescence intensity (a.u.)
GGAGTTACCAGGAGTGATGTCGTACGCCTGGCCATCATCGCGGAGTCACCTAGTGCAG | 3220 fluorescence intensity (a.u.)
TAATTTCAGATTTAGCTGGCTGTAGAATTCACCACTTGATCGGAGTCACCTAGTGCAG | 3250 fluorescence intensity (a.u.)
GCGAACCGAGTTAATTTTCTTGAATAGTGACACATGCTCACGGAGTCACCTAGTGCAG | 3540 fluorescence intensity (a.u.)
AGCTAGCTGATCGATTAGCCTCGTCAGCTACAAGTGATCGCGGAGTCACCTAGTGCAG | 8000 fluorescence intensity (a.u.)
ATATCTCTATTCTATGCATTAGTCATACATGATTTTGAATCGGAGTCACCTAGTGCAG | 3270 fluorescence intensity (a.u.)
GCCGAGCAAGTCATACTCGGGTGGCACTGCGCGCGCTCGTCGGAGTCACCTAGTGCAG | 3360 fluorescence intensity (a.u.)
ATTCCACCGTAGTCGTACCCCGCCCTCTGCTTTTACTAGTCGGAGTCACCTAGTGCAG | 3760 fluorescence intensity (a.u.)
TGCGCCGTAACGTACGTGTCGTCTTCTAGCTGCAGCCAGTCGGAGTCACCTAGTGCAG | 19900 fluorescence intensity (a.u.)
AGTCGCGGCGGCGGCGCTCGCGCGTGGCGTGGCGTGGCGACGGAGTCACCTAGTGCAG | 8450 fluorescence intensity (a.u.)
TGTTCCAGTGTGGCAACTAGCACTTCCCACGTCCTTGCCACGGAGTCACCTAGTGCAG | 4800 fluorescence intensity (a.u.)
TCGACTTATTTTAAGTGCGGTTGTGGAGGTTTTATGTCCACGGAGTCACCTAGTGCAG | 3370 fluorescence intensity (a.u.)
GTTCTCGTCGCGAGGCGAGGATGACGTCATCGAGCATGTGCGGAGTCACCTAGTGCAG | 29100 fluorescence intensity (a.u.)
TGTCTTGCAAATTAGTCATAATCTGTGCAATTAGTTATTTCGGAGTCACCTAGTGCAG | 3300 fluorescence intensity (a.u.)
GACAGGAGGCAAGTAGTGTCAGCGACAGATGGGTCCCACTCGGAGTCACCTAGTGCAG | 4470 fluorescence intensity (a.u.)
CAAAAGAACAATTATTGATCAACTAATGTACACGTCCCAGCGGAGTCACCTAGTGCAG | 3200 fluorescence intensity (a.u.)
CCTCCACTTCTCCCGGCGGTGGGGTACCTCATCGACGTCGCGGAGTCACCTAGTGCAG | 3550 fluorescence intensity (a.u.)
ATGCCTTCAATATGCATGAGCTGGAAAAGAAGTTGTGTGTCGGAGTCACCTAGTGCAG | 4200 fluorescence intensity (a.u.)
CTAATATTGGCCTATATAGACACACGTGGGTGCGATGTTTCGGAGTCACCTAGTGCAG | 5380 fluorescence intensity (a.u.)

Sequence | binding signal
GCTTAAAGATCACATCAAGCTGACAGGGCGACCAGCCACCCGGAGTCACCTAGTGCAG | 3640 fluorescence intensity (a.u.)
CACCCGCGCGTCGGCCCGCTCGAGCCCAATTACGGCCCGACGGAGTCACCTAGTGCAG | 4120 fluorescence intensity (a.u.)
TGTGCCAGTTGTTAGTCATGATCTTCCTGATGTGTCATCCCGGAGTCACCTAGTGCAG | 10800 fluorescence intensity (a.u.)
GAACCAAGCGCCCGCTCCCGGCCGACGCCGACGCCGACGCCGGAGTCACCTAGTGCAG | 3820 fluorescence intensity (a.u.)
ATTAAATATATAGTATATAAGAATTATTATTATACCCATCCGGAGTCACCTAGTGCAG | 7790 fluorescence intensity (a.u.)
CGAAATAGCCCGCGACCTCTCTCTCTGTGTCTCCGCCGCCCGGAGTCACCTAGTGCAG | 3280 fluorescence intensity (a.u.)
CATAACTCTGGATCAGTATGTTGTGATTGCCAGCATGGCTCGGAGTCACCTAGTGCAG | 5360 fluorescence intensity (a.u.)
TGAACCTAATTAATCCATGATTATCCTATGTGATGCTACACGGAGTCACCTAGTGCAG | 3310 fluorescence intensity (a.u.)
GGGAGGGCAACTGAAGAGGAGTGGCGAGGGAGGGCTTTTGCGGAGTCACCTAGTGCAG | 3660 fluorescence intensity (a.u.)
AAGTCAGGGTGTCCACGTCATCACCCTCCCTCTTTCTCCTCGGAGTCACCTAGTGCAG | 55700 fluorescence intensity (a.u.)
GCGAGCGGCGGCGAGGAGTTCCACGGCGCCAAGGTCGCTGCGGAGTCACCTAGTGCAG | 5820 fluorescence intensity (a.u.)
AATACCAACTGTTTGATTTGAATCGTGTGATGTACTTCACCGGAGTCACCTAGTGCAG | 3360 fluorescence intensity (a.u.)
GCGGATTCCTTCCTTCCTCCCTCCGTCGCCGCCTTCTCTTCGGAGTCACCTAGTGCAG | 20600 fluorescence intensity (a.u.)
TAAAATTGTCACACTCCCTATGTATGATGTGTTAGCGTTGCGGAGTCACCTAGTGCAG | 3730 fluorescence intensity (a.u.)
GTGTGGGGCCACGTCACAGTGGGCCCCATATGTCGGTGGGCGGAGTCACCTAGTGCAG | 12700 fluorescence intensity (a.u.)
GTGTCGCCGAAGCTATAAAAGCGATCGGAAATAATCAGAACGGAGTCACCTAGTGCAG | 29700 fluorescence intensity (a.u.)
ATGCATATATTATAGGTGCCGGTTTTATACCGATGATCAACGGAGTCACCTAGTGCAG | 18100 fluorescence intensity (a.u.)
CTCACTTGCAACGTCAGTTAAAACTAGTTACTATGCTGTCCGGAGTCACCTAGTGCAG | 4930 fluorescence intensity (a.u.)
TACCACTCATTTGTGATAGATGAGATGCCACTTGTCTCCCCGGAGTCACCTAGTGCAG | 3810 fluorescence intensity (a.u.)
AGCCAAACGCCCTCCACCCATAGCCTGACAAGTGGGACCCCGGAGTCACCTAGTGCAG | 19200 fluorescence intensity (a.u.)
GCAGCGCCGTGAACGGCTCCGGCGGCCGCGTCACGAGCGTCGGAGTCACCTAGTGCAG | 6070 fluorescence intensity (a.u.)

For reference, some entries already given:
Sequence | binding signal
GCGAACCGAGTTAATTTTCTTGAATAGTGACACATGCTCACGGAGTCACCTAGTGCAG | 3540 fluorescence intensity (a.u.)
AGCTAGCTGATCGATTAGCCTCGTCAGCTACAAGTGATCGCGGAGTCACCTAGTGCAG | 8000 fluorescence intensity (a.u.)
